# Reference: article PMC7211012
# Chains of the proteins cited; added tags and fusions are not shown.
# UniProt A0MES8: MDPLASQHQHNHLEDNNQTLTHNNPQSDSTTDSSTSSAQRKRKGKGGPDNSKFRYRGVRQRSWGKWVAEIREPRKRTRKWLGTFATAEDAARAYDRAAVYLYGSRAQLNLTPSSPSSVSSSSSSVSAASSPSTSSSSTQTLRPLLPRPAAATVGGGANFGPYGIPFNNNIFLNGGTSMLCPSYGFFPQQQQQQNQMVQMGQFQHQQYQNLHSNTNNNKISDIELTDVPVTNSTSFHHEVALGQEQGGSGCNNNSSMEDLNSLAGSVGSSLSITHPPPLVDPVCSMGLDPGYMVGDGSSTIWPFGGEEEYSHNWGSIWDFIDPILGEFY
# No constants are given. Whether binding was seen depends on the method and setting. Binding seen in cells or lysates may run through a third protein. Some results given as binding are weak or reduced against the parent protein; the word gives no strength. Sequences can lack the tags named with a protein.
# T1: ABI3 (ABA-insensitive 3), fused to a part of YFP for BiFC (Arabidopsis thaliana) (UniProt Q01593)
# T1 sequence: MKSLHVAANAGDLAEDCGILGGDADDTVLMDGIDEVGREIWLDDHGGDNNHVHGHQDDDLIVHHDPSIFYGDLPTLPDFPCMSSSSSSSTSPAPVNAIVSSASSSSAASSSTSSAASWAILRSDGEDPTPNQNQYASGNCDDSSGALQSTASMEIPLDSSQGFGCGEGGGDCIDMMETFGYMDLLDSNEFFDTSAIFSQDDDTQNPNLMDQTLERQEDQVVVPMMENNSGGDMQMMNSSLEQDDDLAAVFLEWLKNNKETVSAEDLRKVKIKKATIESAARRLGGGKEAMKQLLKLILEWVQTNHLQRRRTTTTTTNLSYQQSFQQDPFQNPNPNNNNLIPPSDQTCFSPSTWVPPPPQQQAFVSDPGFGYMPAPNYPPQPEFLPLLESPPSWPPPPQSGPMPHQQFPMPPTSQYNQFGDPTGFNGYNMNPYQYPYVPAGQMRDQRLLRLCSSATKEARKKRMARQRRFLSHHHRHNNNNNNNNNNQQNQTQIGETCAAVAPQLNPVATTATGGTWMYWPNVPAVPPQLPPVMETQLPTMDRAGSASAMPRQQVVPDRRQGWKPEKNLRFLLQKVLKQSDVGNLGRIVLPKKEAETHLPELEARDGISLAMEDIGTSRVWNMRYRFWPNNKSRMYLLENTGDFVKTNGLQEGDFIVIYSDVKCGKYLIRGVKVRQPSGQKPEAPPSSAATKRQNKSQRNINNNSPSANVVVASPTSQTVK
# T2: c-myc-ABI3 (Arabidopsis thaliana) (UniProt Q01593)
# T2 sequence: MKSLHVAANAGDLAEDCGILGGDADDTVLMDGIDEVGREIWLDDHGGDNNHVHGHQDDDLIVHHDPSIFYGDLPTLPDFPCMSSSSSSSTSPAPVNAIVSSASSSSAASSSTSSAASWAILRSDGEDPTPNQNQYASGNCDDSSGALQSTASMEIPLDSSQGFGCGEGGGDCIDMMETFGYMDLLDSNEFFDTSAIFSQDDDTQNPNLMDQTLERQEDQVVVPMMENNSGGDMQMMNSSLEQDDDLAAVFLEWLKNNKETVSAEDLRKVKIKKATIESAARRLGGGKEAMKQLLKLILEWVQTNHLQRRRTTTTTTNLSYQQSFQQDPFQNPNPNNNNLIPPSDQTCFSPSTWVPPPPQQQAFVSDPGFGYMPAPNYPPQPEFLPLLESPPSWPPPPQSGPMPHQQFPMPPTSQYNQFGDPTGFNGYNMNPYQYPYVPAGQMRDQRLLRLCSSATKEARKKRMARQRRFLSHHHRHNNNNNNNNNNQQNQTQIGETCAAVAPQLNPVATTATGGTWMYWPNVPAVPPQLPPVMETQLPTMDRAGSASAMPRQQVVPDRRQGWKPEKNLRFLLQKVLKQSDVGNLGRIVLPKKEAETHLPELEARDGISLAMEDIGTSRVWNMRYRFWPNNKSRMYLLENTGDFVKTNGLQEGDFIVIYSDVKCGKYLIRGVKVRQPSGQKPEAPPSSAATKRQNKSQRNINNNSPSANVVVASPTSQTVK
# Legend:
# [1] = target: T1, ABI3 (ABA-insensitive 3), fused to a part of YFP for BiFC (Arabidopsis thaliana); assay: split reporter; BiFC in Nicotiana benthamiana leaves, 2 days after agroinfiltration; proteins fused to the N-terminal or C-terminal part of YFP; YFP signal by confocal microscopy (488 nm laser, 515/30 filter)
# [2] = target: ABI4 (ABA-insensitive 4), fused to a part of YFP for BiFC (Arabidopsis thaliana) (UniProt A0MES8); assay: as above
# [3] = target: T2, c-myc-ABI3 (Arabidopsis thaliana); assay: pull-down; c-myc-tagged ABI3, ABI4 or ABI5 held on anti-c-myc affinity gel; crude E. coli extracts with GST fusion proteins incubated at 4 °C overnight; 6 washes with RIPA buffer; immunoblot with anti-GST and anti-c-myc; only the target purified
# [4] = target: c-myc-ABI4 (Arabidopsis thaliana) (UniProt A0MES8); assay: as above
binding [1],binding [2],binding [3],binding [4],Binder
binds,binds,–,–,"NBR1ΔUBA (NBR1 with a C-terminal deletion of 87 amino acids), fused to a part of YFP for BiFC (domain or fragment, UniProt Q9SB64 1-617) MESTANALVVKVSYGGVLRRFRVPVKANGQLDLEMAGLKEKIAALFNLSADAELSLTYSDEDGDVVALVDDNDLFDVTNQRLKFLKINVNAGVSTNSAAPESSGSSTPAGMPNPVSKIQKGINDVLMAVPNPMRDTISKVYMDLASKASTSSPVVGEMLDCISKLGQLSIPQESSPCSPVTKPGSSGASLSRDVPSAGGKKDISERTQTGRKPVNLNEPTGAHSKTSGHVPNSSGLGANFNECPFSGSTMNYSCPNPVNLNKHPRRVCHSKKSTNGDYWTSLGVFHKGIRCDGCGVLPITGPRFKSKVKEDYDLCTICYSVMGNEGDYTRMDKPVSVQHLHPFRGPFTQFPNPWLSHPVPRATNGGAPLRCTRPKLDSRFVLDVNVIDGTVVAPSAPFTKIWKMRNSGSLVWPQGTQIVWIGGDRFCNSLSVDLQIPKEGVPIYSELDVKVDFVAPELPGRYISYWRMATSDGAKFGQRVWVLIHVDASLKNSVVNEFHGLNLNASPSLDENFPSEFLGIMNYESAQPGSSSVNPGTVKGTDLEGEVGETQAVEKENLLVGEAHPAIPHGHSPSSSSSSFNMVDFPSMPAVEVLSGGSSSTTKDVPVPLQEDIEKND"
–,–,binds,binds,"GST-NBR1ΔUBA (NBR1 with a C-terminal deletion of 87 amino acids, N-terminal GST) (domain or fragment, UniProt Q9SB64 1-617) MESTANALVVKVSYGGVLRRFRVPVKANGQLDLEMAGLKEKIAALFNLSADAELSLTYSDEDGDVVALVDDNDLFDVTNQRLKFLKINVNAGVSTNSAAPESSGSSTPAGMPNPVSKIQKGINDVLMAVPNPMRDTISKVYMDLASKASTSSPVVGEMLDCISKLGQLSIPQESSPCSPVTKPGSSGASLSRDVPSAGGKKDISERTQTGRKPVNLNEPTGAHSKTSGHVPNSSGLGANFNECPFSGSTMNYSCPNPVNLNKHPRRVCHSKKSTNGDYWTSLGVFHKGIRCDGCGVLPITGPRFKSKVKEDYDLCTICYSVMGNEGDYTRMDKPVSVQHLHPFRGPFTQFPNPWLSHPVPRATNGGAPLRCTRPKLDSRFVLDVNVIDGTVVAPSAPFTKIWKMRNSGSLVWPQGTQIVWIGGDRFCNSLSVDLQIPKEGVPIYSELDVKVDFVAPELPGRYISYWRMATSDGAKFGQRVWVLIHVDASLKNSVVNEFHGLNLNASPSLDENFPSEFLGIMNYESAQPGSSSVNPGTVKGTDLEGEVGETQAVEKENLLVGEAHPAIPHGHSPSSSSSSFNMVDFPSMPAVEVLSGGSSSTTKDVPVPLQEDIEKND"
